We go through 13 molecules from patent US20230174596A1 (published 2023).

T1: human VEGF-A (human, UniProt P15692-4 34-135, limits assumed)
T1 sequence (looked up): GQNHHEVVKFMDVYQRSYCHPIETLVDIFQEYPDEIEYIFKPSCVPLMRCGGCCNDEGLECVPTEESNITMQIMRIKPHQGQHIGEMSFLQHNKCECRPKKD

T2: hVEGF-A (8-109) (human, UniProt P15692 214-315)
T2 construct: residue numbers count on mature VEGF-A; dimer
T2 sequence (looked up): T1 sequence (looked up)

T3: rat VEGF-A (rat, UniProt P16612-2 27-190, limits assumed)
T3 sequence (looked up): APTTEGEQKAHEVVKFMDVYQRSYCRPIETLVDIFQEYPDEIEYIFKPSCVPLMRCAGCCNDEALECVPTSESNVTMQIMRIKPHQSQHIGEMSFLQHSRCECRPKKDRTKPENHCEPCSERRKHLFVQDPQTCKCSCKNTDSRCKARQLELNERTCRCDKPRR

These are yes or no findings as the source states them, for the method shown. Some entries that bind do so weakly or less than the wild type.

The target in one test is T1, human VEGF-A. The test is described as follows: co-crystal structure.
For the molecule GCNIMLPFWGCGRDFECLAGCVCQYYQSCG (designed binder) [VEGF_CKP9.54.90], the binding result was “binds”.

Take GCNIMLPFWGCKQDSDCLAGCVCQYYQSCG (designed binder, also called EM54) [VEGF_CKP9.54]: the binding result was “binds”.

As for GCDVMQPYWGCKQDSDCLAGCVCHWYNSCG (designed binder, also called EM63) [VEGF_CKP9.63], the binding entry is “binds”.

A further test has as its target T1, human VEGF-A. The test is described as follows: phage competition ELISA, soluble peptide.
GCRDLDVKWDCKQDSDCLAGCFCQYYSSCG (designed binder) [VEGF_CKP10]: the binding result is reported as “binds”.

Regarding GCQLMQPFWGCKQDSDCLAGCVCHWYQSCG (designed binder) [VEGF_CKP9], the binding result is given as “binds”.

As to GCPTTRFKQYCKQDSDCLAGCVCGPNGFCG (designed binder) [VEGF_CKP6], the binding entry is reported as “binds”.

Take GCQDPTFNWALYCKQDSDCLAGCVCQMYQSCG (designed binder) [VEGF_CKP7]: the binding entry is reported as “binds”.

Take GCRTPWEPHDITCKQDSDCLAGCVCGPNGFCG (designed binder) [VEGF_CKP11]: the binding entry is “binds”.

On to GCTTPWPPHEIMCKQDSDCLAGCVCGPNGFCG (designed binder) [VEGF_CKP12], for which the binding entry is listed as “binds”.

Turning to GCVTPWKPHWINCKQDSDCLAGCVCGPNGFCG (designed binder) [VEGF_CKP13], the binding result is “binds”.

The target of another test is T2, hVEGF-A (8-109). Nature of the test: spot phage ELISA. For orientation: In an ELISA, binding on a coated surface is turned into a signal by an enzyme label.
On to GCDVMQPYWGCEMDFDCLAGCVCHWYNSCGVN (designed binder) [9.63.44-14 (SEQ ID NO: 514)], for which the binding entry is given as “binds”.

Consider GCDVMQPYWGCEMDFDCLAGCICHWYNSCGWK (designed binder) [9.63.44-14 (SEQ ID NO: 532)], for which the binding entry was “binds”.

The target of the next test is T1, human VEGF-A. The test is described as follows: SPR. (In general: Surface plasmon resonance follows binding to a sensor surface in real time, without labels.)
On to GCNIMLPFWGCGRDFECLAGCVCQYYQSCG (designed binder) [VEGF_CKP9.54.90], for which the binding entry is listed as “binds”.

On to GCNIMLPFWGCKQDSDCLAGCVCQYYQSCG (designed binder, also called EM54) [VEGF_CKP9.54], for which the binding result is recorded as “binds”.

Turning to GCDVMQPYWGCKQDSDCLAGCVCHWYNSCG (designed binder, also called EM63) [VEGF_CKP9.63], the binding result is given as “binds”.

For GCDVMQPYWGCGPDIDCLAGCVCHWYNSCG (designed binder, also called L2.9.63.12) [VEGF_CKP9.63.12], the binding entry is listed as “binds”.

Another test addresses T3, rat VEGF-A. The test is described as follows: SPR.
For GCNIMLPFWGCGRDFECLAGCVCQYYQSCG (designed binder) [VEGF_CKP9.54.90], the binding result is reported as “binds”.

As for GCNIMLPFWGCKQDSDCLAGCVCQYYQSCG (designed binder, also called EM54) [VEGF_CKP9.54], the binding result is recorded as “binds”.

GCDVMQPYWGCKQDSDCLAGCVCHWYNSCG (designed binder, also called EM63) [VEGF_CKP9.63]: the binding entry is “binds”.

GCDVMQPYWGCGPDIDCLAGCVCHWYNSCG (designed binder, also called L2.9.63.12) [VEGF_CKP9.63.12]: the binding result was “binds”.

In another test the target is T2, hVEGF-A (8-109). The test is described as follows: phage competition ELISA.
GCDVMQPYWGCEMDFDCLAGCICHWYNSCGWK (designed binder) [9.63.44-14 (SEQ ID NO: 532)]: the binding entry was “binds”.
